Measured values published in publication PMC6172191.
No constants are given. Whether binding was seen depends on the method and setting. In cells and extracts the contact can be indirect. Some entries that bind do so weakly or less than the wild type. Sequences can lack the tags named with a protein. Each block holds one binder with its values, some of them ahead of it.

Key:
GST-copine-III (human) = GST-copine-III (human) (UniProt O75131); assay: pull-down; GST-copine-III (or GST as control) on glutathione beads with lysates of HEK293 cells transfected with FLAG-EMP1; western blotting; only the target purified
[1] = target: T1, EMP1 intracellular loop peptide (…) (human); assay: pull-down; peptide-bound Sepharose beads or control beads with lysates of HEK293 cells transfected with EGFP-copine-III constructs; western blotting; only the target purified
T1 sequence (peptide): FTMEKGNRF

- binding (GST-copine-III (human)): binds
B1: FLAG-EMP1 (protein, UniProt P54849 1-157)
chain: MLVLLAGIFVVHIATVIMLFVSTIANVWLVSNTVDASVGLWKNCTNISCSDSLSYASEDALKTVQAFMILSIIFCVIALLVFVFQLFTMEKGNRFFLSGATTLVCWLCILVGVSIYTSHYANRDGTQYHHGYSYILGWICFCFSFIIGVLYLVLRKK
modifications: glycosylated (site not stated)

- binding [1]: no binding
B3: EGFP-copine-III-ΔVWA (domain or fragment, UniProt O75131 7-251)
chain: TKVALNVSCANLLDKDIGSKSDPLCVLFLNTSGQQWYEVERTERIKNCLNPQFSKTFIIDYYFEVVQKLKFGVYDIDNKTIELSDDDFLGECECTLGQIVSSKKLTRPLVMKTGRPAGKGSITISAEEIKDNRVVLFEMEARKLDNKDLFGKSDPYLEFHKQTSDGNWLMVHRTEVVKNNLNPVWRPFKISLNSLCYGDMDKTIKVECYDYDNDGSHDLIGTFQTTMTKLKEASRSSPVEFECIN

The remaining lines, values behind:

B2: EGFP-copine-III-ΔC2-2 (domain or fragment, UniProt O75131)
chain: TKVALNVSCANLLDKDIGSKSDPLCVLFLNTSGQQWYEVERTERIKNCLNPQFSKTFIIDYYFEVVQKLKFGVYDIDNKTIELSDDDFLGECECTLGQIVSSKKLTRPLVMKTGRPAGKNSGVISVKQCEITVECTFLDYIMGGCQLNFTVGVDFTGSNGDPRSPDSLHYISPNGVNEYLTALWSVGLVIQDYDADKMFPAFGFGAQIPPQWQVSHEFPMNFNPSNPYCNGIQGIVEAYRSCLPQIKLYGPTNFSPIINHVARFAAAATQQQTASQYFVLLIITDGVITDLDETRQAIVNASRLPMSIIIVGVGGADFSAMEFLDGDGGSLRSPLGEVAIRDIVQFVPFRQFQNAPKEALAQCVLAEIPQQV
- binding [1]: no binding

B4: EGFP-copine-III-ΔC2-1 (domain or fragment, UniProt O75131 139-515)
chain: RVVLFEMEARKLDNKDLFGKSDPYLEFHKQTSDGNWLMVHRTEVVKNNLNPVWRPFKISLNSLCYGDMDKTIKVECYDYDNDGSHDLIGTFQTTMTKLKEASRSSPVEFECINEKKRQKKKSYKNSGVISVKQCEITVECTFLDYIMGGCQLNFTVGVDFTGSNGDPRSPDSLHYISPNGVNEYLTALWSVGLVIQDYDADKMFPAFGFGAQIPPQWQVSHEFPMNFNPSNPYCNGIQGIVEAYRSCLPQIKLYGPTNFSPIINHVARFAAAATQQQTASQYFVLLIITDGVITDLDETRQAIVNASRLPMSIIIVGVGGADFSAMEFLDGDGGSLRSPLGEVAIRDIVQFVPFRQFQNAPKEALAQCVLAEIPQQV
- binding [1]: binds
